Article PMC7069958
Results are given in words; binding and its absence hold for the method and conditions named. In cells and extracts the contact can be indirect. Some entries that bind do so weakly or less than the wild type.

The chains behind the UniProt entries cited, without tags or fusion partners.
UniProt P83949: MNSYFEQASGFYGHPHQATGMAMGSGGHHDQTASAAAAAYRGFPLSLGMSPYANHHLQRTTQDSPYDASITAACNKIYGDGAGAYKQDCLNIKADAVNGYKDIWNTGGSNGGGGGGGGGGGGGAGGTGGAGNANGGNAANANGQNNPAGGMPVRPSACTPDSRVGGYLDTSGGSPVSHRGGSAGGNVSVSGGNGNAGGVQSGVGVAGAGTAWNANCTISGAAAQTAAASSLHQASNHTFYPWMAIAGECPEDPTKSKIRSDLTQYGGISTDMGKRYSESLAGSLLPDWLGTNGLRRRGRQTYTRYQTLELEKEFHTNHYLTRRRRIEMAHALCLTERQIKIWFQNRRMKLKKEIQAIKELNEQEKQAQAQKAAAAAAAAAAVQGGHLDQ
UniProt O46036: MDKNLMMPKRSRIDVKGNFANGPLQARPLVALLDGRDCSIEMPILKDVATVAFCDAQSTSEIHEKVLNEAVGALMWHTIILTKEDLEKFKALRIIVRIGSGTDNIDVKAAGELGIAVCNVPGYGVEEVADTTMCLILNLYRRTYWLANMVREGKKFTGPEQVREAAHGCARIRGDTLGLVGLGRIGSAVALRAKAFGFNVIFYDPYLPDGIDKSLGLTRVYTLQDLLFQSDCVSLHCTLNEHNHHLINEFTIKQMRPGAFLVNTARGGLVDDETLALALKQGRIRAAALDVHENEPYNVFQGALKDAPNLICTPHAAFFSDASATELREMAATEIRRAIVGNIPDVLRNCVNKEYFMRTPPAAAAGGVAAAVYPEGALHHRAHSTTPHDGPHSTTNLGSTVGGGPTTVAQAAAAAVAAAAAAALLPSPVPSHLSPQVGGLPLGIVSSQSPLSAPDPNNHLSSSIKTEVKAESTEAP
UniProt Q9VWC6: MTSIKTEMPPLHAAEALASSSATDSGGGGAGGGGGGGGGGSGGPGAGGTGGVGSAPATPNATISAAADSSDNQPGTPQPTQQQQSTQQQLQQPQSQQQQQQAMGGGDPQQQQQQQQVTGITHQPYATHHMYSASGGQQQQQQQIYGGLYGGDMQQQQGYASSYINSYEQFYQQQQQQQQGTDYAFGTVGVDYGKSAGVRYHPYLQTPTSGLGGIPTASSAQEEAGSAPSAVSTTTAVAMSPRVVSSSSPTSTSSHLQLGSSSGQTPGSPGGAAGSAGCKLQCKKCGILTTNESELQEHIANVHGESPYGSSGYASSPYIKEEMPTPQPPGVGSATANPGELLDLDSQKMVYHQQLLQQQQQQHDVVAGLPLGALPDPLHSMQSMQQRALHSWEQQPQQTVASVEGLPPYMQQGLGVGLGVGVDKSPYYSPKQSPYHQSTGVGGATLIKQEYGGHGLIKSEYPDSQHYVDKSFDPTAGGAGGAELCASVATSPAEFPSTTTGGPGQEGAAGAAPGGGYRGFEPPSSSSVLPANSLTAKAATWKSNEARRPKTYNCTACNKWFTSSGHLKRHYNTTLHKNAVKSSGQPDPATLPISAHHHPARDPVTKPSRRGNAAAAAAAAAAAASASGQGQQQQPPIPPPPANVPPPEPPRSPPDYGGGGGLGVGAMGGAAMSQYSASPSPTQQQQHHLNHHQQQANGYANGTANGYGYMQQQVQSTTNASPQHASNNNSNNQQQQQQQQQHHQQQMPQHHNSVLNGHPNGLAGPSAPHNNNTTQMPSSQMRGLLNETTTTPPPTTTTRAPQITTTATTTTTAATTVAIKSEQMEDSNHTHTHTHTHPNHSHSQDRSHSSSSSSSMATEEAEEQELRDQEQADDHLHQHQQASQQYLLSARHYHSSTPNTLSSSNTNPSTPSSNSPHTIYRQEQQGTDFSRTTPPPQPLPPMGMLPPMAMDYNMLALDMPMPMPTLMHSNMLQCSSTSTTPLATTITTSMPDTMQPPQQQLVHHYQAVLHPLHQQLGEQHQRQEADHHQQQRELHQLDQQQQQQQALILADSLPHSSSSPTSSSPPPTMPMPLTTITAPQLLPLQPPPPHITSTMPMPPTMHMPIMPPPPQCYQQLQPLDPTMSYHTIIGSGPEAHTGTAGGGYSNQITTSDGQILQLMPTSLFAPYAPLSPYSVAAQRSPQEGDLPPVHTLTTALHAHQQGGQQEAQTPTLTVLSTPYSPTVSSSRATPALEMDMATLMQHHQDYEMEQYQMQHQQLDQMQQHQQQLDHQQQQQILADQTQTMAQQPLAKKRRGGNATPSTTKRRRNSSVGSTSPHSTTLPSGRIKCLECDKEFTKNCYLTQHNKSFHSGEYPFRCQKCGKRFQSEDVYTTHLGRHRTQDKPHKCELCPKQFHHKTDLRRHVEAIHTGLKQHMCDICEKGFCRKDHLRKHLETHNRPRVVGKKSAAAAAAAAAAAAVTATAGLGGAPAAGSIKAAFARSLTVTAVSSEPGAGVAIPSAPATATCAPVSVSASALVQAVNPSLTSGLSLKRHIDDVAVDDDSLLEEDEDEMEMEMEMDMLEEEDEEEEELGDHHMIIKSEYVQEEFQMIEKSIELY

Target: GFP-Ubx expressed from the endogenous Ubx locus (Drosophila (endogenous in embryos)) (UniProt P83949)
Assay: co-IP; embryos (w1118 control or endogenous GFP-Ubx) fixed with 3.2% formaldehyde; nuclear lysate sonicated, Benzonase treated, in NP40 buffer (20 mM Tris pH 7.5, 150 mM NaCl, 2 mM EDTA, 1% NP40), overnight with GFP-Trap beads; immunoblot; endogenous levels of all proteins

binding	Substance
binds	C-terminal binding protein (CtBP), endogenous (from UniProt O46036 1-476)
binds	Zelda (Zld), endogenous (from UniProt Q9VWC6 1-1596)
